Record: PubChem BioAssay AID504791 (Drosophila RNAi Screening Center, 2011)

Assay: 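Genes whose knock-down strengthens or weakens small-RNA reporter silencing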 (primary screen)
System: Drosophila S2-derived reporter cells
Reagents: long dsRNA against Drosophila genes, about 150-250 ng dsRNA per well (siRNA assay); about 80-120 ng (miRNA assay)
Time to read-out: about 5 days (siRNA assay); about 4 days (miRNA assay)
Treatment: copper sulfate induction of reporters: 25 µM (siRNA assay); 200 mM stated (miRNA assay), 1-2 days before reading
Measurement: 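Dual luciferase assay: Renilla to firefly signal ratio in each well, scaled to the mean ratio of its plate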
Scale: siRNA reporter hit score: higher = 3 marks a strong hit with raised ratio; -3 a strong hit with lowered ratio
Active means: 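First-pass picks had plate-scaled ratios over 1.5 for the siRNA assay, over 1.6 for the miRNA assay, or under 0.6; two distinct dsRNAs had to score alike on retest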
The deposit covers about 23,000 reagents; below is an unselected part of those with a known target gene and a result. Over the whole deposit, 199 (0.86%) got an active call. 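Plate-scaled ratios behind the calls are not deposited; printed light signals are raw; many rows marked increased or decreased are still called inactive.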 Unmarked entries are inactive. Reagents against one gene are numbered here. No sequences are given here.

gene knocked down	reagent	siRNA reporter hit score	stable siRNA reporter change	miRNA reporter change	stable assay Renilla, run 1 (luminescence)	stable assay firefly, run 1 (luminescence)
Osi10b	1				7160	4.41e5
CG31816	1				6082	5.06e5
CG1958	1				5151	2.43e5
CG30094	1				9078	4.98e5
CG8243	1				7202	4.29e5
CG8243	2				2584	3.20e5
CG5024	1				6506	3.74e5
CG33475	1				4708	4.13e5
Eato	1				1.20e5	1.46e6
Eato	2				7592	3.86e5
aly	1				5931	2.86e5
aly	2				8643	4.77e5
Lnk	1				8237	4.80e5
CNBP	1				7656	6.09e5
CNBP	2				7759	7.10e5
CNBP	3				9885	5.30e5
Cyp4aa1	1				7460	4.07e5
Mink	1				9233	3.17e5
CG10435	1				9590	4.37e5
5PtaseI	1				9785	4.15e5
5PtaseI	2				10189	6.54e5
CG4338	1				7702	4.57e5
pygo	1				8336	5.19e5
sv	1	3			6662	3.66e5
glob3	1			reporter ratio raised past the hit cutoff	7943	4.04e5
CG7653	1				7612	4.11e5
SmB	1				10637	1.02e6
CG5188	1				7384	3.82e5
CG2533	1				5211	4.72e5
CG12784	1				8074	4.81e5
betaCOP	1				6051	3.13e5
CG9568	1				5214	4.91e5
esc	1				18118	6.56e5
CG6583	1		reporter ratio raised past the hit cutoff		9398	3.17e5
CG14852	1				6392	3.41e5
ClC-c	1				7510	2.90e5
Obp56a	1				5366	2.68e5

The list goes on (7 carried over from the part before).
gene knocked down	reagent	siRNA reporter hit score	stable siRNA reporter change	miRNA reporter change	stable assay Renilla, run 1 (luminescence)	stable assay firefly, run 1 (luminescence)
betaCOP	1				6051	3.13e5
CG9568	1				5214	4.91e5
esc	1				18118	6.56e5
CG6583	1		reporter ratio raised past the hit cutoff		9398	3.17e5
CG14852	1				6392	3.41e5
ClC-c	1				7510	2.90e5
Obp56a	1				5366	2.68e5
Gycalpha99B	1				7627	4.54e5
Cftr	1				10801	4.04e5
S6KL	1				3267	4.16e5
S6KL	2				8474	5.15e5
S6KL	3				7619	4.99e5
Sugb	1				7664	4.08e5
clu	1				11442	3.91e5
Aven	1				5978	5.09e5
flw	1				6016	5.66e5
flw	2				6942	6.78e5
vig2	1				8350	3.72e5
CG8617	1				6052	3.52e5
CG4686	1				7594	4.09e5
Lon	1				9719	4.76e5
alpha-Est2	1				7098	4.24e5
Fancd2	1				6998	3.38e5
Fancd2	2				3723	3.72e5
CG16739	1				6482	3.78e5
dob	1				7211	4.63e5
mtTFB2	1		reporter ratio lowered past the hit cutoff		6530	6.33e5
